Experimental data taken from patent publication US20170114124A1.
Results are given in words; binding and its absence hold for the method and conditions named. In cells and extracts the contact can be indirect. Some binding calls cover weakened binding; strength is not graded here.

The chains behind the UniProt entries cited, without tags or fusion partners. Residues count along the entry.
UniProt Q9Y6N7, residues 26-1651: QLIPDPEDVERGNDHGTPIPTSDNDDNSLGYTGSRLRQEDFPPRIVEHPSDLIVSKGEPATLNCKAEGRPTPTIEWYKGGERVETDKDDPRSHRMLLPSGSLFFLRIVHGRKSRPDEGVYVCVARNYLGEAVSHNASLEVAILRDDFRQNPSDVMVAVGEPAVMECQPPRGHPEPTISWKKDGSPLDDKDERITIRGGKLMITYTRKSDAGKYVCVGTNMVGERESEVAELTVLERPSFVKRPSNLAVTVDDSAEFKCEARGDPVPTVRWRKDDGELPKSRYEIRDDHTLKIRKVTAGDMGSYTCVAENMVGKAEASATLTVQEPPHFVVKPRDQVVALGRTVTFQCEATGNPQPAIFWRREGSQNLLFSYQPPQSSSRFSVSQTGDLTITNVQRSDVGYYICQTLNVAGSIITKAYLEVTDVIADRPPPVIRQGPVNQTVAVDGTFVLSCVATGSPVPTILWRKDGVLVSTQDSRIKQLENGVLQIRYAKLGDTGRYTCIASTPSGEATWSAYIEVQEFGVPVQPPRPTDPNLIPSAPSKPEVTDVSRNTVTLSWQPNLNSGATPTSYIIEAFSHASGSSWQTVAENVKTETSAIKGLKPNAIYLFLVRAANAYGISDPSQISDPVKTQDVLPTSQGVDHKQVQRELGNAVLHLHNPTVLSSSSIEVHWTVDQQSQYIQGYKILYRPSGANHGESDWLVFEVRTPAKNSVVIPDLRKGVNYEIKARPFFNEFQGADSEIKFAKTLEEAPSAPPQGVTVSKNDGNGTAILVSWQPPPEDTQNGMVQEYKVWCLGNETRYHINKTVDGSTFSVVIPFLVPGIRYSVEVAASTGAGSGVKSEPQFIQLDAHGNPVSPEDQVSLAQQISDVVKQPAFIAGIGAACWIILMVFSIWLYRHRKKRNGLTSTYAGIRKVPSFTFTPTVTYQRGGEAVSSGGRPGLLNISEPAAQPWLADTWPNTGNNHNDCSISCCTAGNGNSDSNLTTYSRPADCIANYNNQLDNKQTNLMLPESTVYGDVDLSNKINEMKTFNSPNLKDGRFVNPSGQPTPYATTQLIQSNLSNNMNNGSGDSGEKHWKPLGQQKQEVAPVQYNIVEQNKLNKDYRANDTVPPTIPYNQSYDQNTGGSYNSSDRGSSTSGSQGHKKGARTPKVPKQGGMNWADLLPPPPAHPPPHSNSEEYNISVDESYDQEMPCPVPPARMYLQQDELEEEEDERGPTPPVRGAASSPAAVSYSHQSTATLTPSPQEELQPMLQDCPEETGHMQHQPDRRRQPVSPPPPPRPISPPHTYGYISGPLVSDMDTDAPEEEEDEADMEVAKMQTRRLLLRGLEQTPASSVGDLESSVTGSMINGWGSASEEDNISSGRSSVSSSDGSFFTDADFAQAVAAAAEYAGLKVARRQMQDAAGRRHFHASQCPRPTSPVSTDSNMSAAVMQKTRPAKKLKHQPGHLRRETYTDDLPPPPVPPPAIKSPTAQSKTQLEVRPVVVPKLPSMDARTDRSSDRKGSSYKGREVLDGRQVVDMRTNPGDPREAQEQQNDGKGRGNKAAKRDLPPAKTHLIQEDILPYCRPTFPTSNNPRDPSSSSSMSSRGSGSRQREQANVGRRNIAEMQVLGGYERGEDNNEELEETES
UniProt Q13459, residues 2-2157: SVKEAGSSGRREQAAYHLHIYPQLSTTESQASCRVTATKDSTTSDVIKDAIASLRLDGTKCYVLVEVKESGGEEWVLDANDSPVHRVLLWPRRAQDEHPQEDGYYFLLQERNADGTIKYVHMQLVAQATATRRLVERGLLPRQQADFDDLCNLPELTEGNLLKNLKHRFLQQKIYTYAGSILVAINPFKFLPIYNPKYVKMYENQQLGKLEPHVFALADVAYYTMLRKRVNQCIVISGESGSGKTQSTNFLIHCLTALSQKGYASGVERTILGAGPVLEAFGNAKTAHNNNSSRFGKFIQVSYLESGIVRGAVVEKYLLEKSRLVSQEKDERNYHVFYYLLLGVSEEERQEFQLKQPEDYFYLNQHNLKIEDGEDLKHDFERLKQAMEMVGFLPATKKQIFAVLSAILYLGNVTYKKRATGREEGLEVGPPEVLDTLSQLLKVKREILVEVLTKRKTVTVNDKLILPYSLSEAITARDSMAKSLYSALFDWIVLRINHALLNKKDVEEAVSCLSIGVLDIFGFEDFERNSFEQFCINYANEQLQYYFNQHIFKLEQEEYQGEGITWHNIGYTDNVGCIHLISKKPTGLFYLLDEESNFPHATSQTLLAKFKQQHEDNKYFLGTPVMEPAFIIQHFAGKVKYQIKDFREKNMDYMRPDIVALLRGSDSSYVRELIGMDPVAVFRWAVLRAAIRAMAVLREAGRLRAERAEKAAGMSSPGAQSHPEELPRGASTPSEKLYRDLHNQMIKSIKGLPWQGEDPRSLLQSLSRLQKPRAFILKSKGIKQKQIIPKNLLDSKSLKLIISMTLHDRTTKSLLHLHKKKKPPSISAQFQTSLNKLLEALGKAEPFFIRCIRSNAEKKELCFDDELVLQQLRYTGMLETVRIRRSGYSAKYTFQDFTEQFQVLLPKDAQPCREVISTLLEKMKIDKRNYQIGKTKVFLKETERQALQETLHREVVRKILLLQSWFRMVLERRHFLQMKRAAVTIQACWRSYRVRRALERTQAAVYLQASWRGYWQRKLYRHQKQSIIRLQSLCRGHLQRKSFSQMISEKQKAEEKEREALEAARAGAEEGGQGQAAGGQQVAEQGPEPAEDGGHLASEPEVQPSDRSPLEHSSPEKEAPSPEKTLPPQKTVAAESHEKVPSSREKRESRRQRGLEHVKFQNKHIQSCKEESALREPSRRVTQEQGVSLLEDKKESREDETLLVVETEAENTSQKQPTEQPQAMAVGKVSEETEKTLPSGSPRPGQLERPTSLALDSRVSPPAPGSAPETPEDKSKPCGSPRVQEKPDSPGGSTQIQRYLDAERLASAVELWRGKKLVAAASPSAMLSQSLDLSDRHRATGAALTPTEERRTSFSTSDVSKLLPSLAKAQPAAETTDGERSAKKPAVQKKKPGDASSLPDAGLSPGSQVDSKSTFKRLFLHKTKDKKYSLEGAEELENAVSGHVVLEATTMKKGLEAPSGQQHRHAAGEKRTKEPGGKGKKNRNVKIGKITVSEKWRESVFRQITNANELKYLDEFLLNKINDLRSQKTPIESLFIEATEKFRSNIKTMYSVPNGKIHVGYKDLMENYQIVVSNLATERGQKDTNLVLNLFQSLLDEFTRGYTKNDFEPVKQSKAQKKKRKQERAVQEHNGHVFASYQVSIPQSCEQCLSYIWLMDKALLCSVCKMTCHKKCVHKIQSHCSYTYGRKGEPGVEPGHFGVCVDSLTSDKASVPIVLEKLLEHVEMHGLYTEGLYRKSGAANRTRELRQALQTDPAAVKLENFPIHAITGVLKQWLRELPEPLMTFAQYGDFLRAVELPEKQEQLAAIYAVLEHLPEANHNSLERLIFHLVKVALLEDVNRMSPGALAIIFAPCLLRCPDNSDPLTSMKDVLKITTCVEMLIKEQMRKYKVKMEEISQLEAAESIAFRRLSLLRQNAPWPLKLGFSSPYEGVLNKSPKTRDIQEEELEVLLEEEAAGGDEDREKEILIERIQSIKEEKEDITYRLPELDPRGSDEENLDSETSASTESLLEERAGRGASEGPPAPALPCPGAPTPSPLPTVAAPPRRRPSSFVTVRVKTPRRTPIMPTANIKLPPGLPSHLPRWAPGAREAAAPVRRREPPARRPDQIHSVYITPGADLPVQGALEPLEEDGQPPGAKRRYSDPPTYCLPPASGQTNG

Legend:
[1] = molecular target: Robo1, endogenous protein of H1299 lung cancer cells (human) (UniProt Q9Y6N7); assay: co-immunoprecipitation of endogenous proteins, H1299 lysates
[2] = molecular target: Robo1, endogenous protein of H1299 lung cancer cells (human) (UniProt Q9Y6N7); assay: co-immunoprecipitation of endogenous proteins, H1299 lysates, figure legend

Substance: Myo9b (Myosin IXb), endogenous protein (from UniProt Q13459 2-2157)
- binding [1]: binds
- binding [2]: binds
